No constants are given. Whether binding was seen depends on the method and setting. In cells and extracts the contact can be indirect. Some results given as binding are weak or reduced against the parent protein; the word gives no strength.
What was measured:
[1] = target: KLF13 variant c.467G > A (S156N), myc-tagged (human) (UniProt Q9Y2Y9); experiment: co-IP; 293 T cells co-transfected with wild-type or variant myc-KLF13 and TBX5; protein extracts incubated overnight with anti-myc antibody coupled to magnetic beads; bound proteins revealed with anti-TBX5 by Western blotting
[2] = target: KLF13 variant c.487C > T (P163S), myc-tagged (human) (UniProt Q9Y2Y9); experiment: as above

Chains of the proteins cited; added tags and fusions are not shown. Lines headed by an entry give the natural chain unless they say otherwise; changes in a name come on top.
UniProt Q9Y2Y9: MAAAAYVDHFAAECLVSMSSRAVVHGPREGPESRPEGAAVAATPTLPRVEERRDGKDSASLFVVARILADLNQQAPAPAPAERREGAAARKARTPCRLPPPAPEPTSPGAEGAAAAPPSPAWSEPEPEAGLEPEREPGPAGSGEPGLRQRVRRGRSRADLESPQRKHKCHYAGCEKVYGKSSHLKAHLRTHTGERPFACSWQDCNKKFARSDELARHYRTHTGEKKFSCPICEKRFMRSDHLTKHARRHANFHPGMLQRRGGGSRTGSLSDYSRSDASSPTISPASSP

binding [1]: binds | binding [2]: binds
B1: TBX5 (natural protein, UniProt Q99593 1-518, looked up)
chain: MADADEGFGLAHTPLEPDAKDLPCDSKPESALGAPSKSPSSPQAAFTQQGMEGIKVFLHERELWLKFHEVGTEMIITKAGRRMFPSYKVKVTGLNPKTKYILLMDIVPADDHRYKFADNKWSVTGKAEPAMPGRLYVHPDSPATGAHWMRQLVSFQKLKLTNNHLDPFGHIILNSMHKYQPRLHIVKADENNGFGSKNTAFCTHVFPETAFIAVTSYQNHKITQLKIENNPFAKGFRGSDDMELHRMSRMQSKEYPVVPRSTVRQKVASNHSPFSSESRALSTSSNLGSQYQCENGVSGPSQDLLPPPNPYPLPQEHSQIYHCTKRKEEECSTTDHPYKKPYMETSPSEEDSFYRSSYPQQQGLGASYRTESAQRQACMYASSAPPSEPVPSLEDISCNTWPSMPSYSSCTVTTVQPMDRLPYQHFSAHFTSGPLVPRLAGMANHGSPQLGEGMFQHQTSVAHQPVVRQCGPQTGLQSPGTLQPPEFLYSHGVPRTLSPHQYHSVHGVGMVPEWSDNS

Source: article PMC7160950, “Identification and analysis of KLF13 variants in patients with congenital heart disease” (BMC Medical Genetics, 2020)
